Measured values reported in the supplement of paper PMC7024190.
Values joined by “and” are separate entries in the source; they are usually repeats but may differ in a detail not shown here. Equal entries are not always repeated. This is one part of the list. This data set is noisy: repeats of one test often differ as much as different tests do.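 The cells were human embryonic kidney cells carrying a Renilla luciferase gene, driven by the HSV-TK promoter, on a plasmid put in briefly by transfection. This is the first-round screen of about ten thousand compounds, looking for ones that raise reporter output.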

Columns and labels:
Assay in all cases: log relative Renilla luciferase luminescence (reporter expression vs reference, reference not stated) (log (base not stated)); higher = higher recombinant reporter expression
Details in all cases: 10 µM; time after transfection 48 h
[1] = tested on: HEK 293FT
Protocol: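 HEK 293FT cells transiently transfected with pRL-TK (Renilla luciferase) were treated with compounds at 10 uM and luminescence was read about 42 h later. Values are log relative Renilla luminescence (log base and reference not stated). Single-pass screen; ICCB Known Bioactives library.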

[2] = tested on: HEK 293FT; remark: listed apart in the source
[3] = tested on: HEK 293FT; remark: listed apart in the source
[4] = tested on: HEK 293FT; remark: listed apart in the source
Protocol: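 HEK 293FT cells transiently transfected with pRL-TK (Renilla luciferase) were treated with compounds at 10 uM and luminescence was read about 42 h later. Values are log relative Renilla luminescence (log base and reference not stated). Single-pass screen; 2080 natural products library.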

[5] = tested on: HEK 293FT; remark: listed apart in the source

## CCCOc1ccccc1-c1nc2[nH]nnc2c(=O)[nH]1 [Zaprinast]
[1]
  log: -0.067
[2]
  log: 0.0032

## CCCCC/C=C\C/C=C\C/C=C\C/C=C\CCCC(=O)OC(CO)CO [2-Arachidonoylglycerol]
[1]
  log: -0.107

## CCCCCC=CCC=CCC=CCC=CCCCCCC(=O)O [Adrenic acid (22:4, n-6)]
[1]
  log: 0.00897

## COc1ccc(CCN(C)CCc2ccc(OC)c(OC)c2)cc1OC
[1]
  log: 0.12

## Nc1cc(N2CCCCC2)nc(N)[n+]1[O-] [Minoxidil]
[1]
  log: -0.00904
[2]
  log: 0.028

## Nc1ccn([C@@H]2CS[C@H](CO)O2)c(=O)n1 [Lamivudine]
[3]
  log: 0.077

## COc1cc(-c2ccc(=O)[nH]n2)ccc1OC(F)F [Zardaverine]
[1]
  log: -0.165
[2]
  log: -0.0609

## O=c1c(-c2ccc(O)cc2)coc2cc(O)cc(O)c12 [Genistein]
[1]
  log: 0.374
[2]
  log: 0.0544

## CNC(=O)[C@H]1O[C@@H](n2cnc3c(NCc4cccc(I)c4)ncnc32)[C@H](O)[C@@H]1O
[1]
  log: -0.251
[2]
  log: 0.457

## C/C=C(\C)C(=O)O[C@@H]1c2c(ccc3ccc(=O)oc23)OC(C)(C)[C@@H]1OC(C)=O [Pteryxin]
[3]
  log: 0.116

## O=C(O)CN1C(=O)c2cccc3cccc(c23)C1=O [Alrestatin]
[1]
  log: -0.0571
[2]
  log: 0.118

## N#CC(=C(/N)Sc1ccccc1N)/C(C#N)=C(/N)Sc1ccccc1N
[1]
  log: 0.0907
[2]
  log: 0.0525

## O=C(O)c1ccccc1Nc1ccn2c(=O)c3ccccc3nc2n1 [Pyrimidant]
[3]
  log: 0.148

## O=C(O)CCc1nc2ccccc2[nH]1 [Procodazole]
[3]
  log: 0.0684

## O=C(CC(=O)Nc1ccc(C(=O)O)cc1)Nc1ccc(C(=O)O)cc1 [Malaben]
[3]
  log: 0.0165

## CCCCOc1cc(CC2CNC(=O)N2)ccc1OC (stereo unspecified)
[1]
  log: -0.13
[2]
  log: 0.0915

## CNCCC(Oc1ccc(C(F)(F)F)cc1)c1ccccc1 (stereo unspecified) [Fluoxetine]
[3]
  log: 0.128

## COCCOC(=O)C1=C(C)NC(C)=C(C(=O)OC(C)C)C1c1cccc([N+](=O)[O-])c1 (stereo unspecified) [Nimodipine]
[1]
  log: -0.0475
[2]
  log: -0.0452

## CCCCCCCCCCCCCCCCCCCCCCCCCCCCCCC [Hentriacontane]
[3]
  log: 0.116

## COc1ccc(C2CNC(=O)C2)cc1OC1CCCC1 (stereo unspecified) [Rolipram]
[1]
  log: -0.308
[2]
  log: 0.0515

## O=C(O)COc1ccccc1/C=N/NC(=O)c1ccncc1 [Aconiazide]
[3]
  log: 0.205

## COc1ccc2c(c1)CC[C@@H]1[C@@H]2CC[C@]2(C)[C@@H](O)CC[C@@H]12 [Estradiol-3-methyl-ether]
[3]
  log: 0.0932

## CCNCC(=O)N1c2ccccc2CCc2ccc(NC(=O)OCC)cc21
[3]
  log: -0.248

## N[C@@H](Cc1c[nH]c2ccc(O)cc12)C(=O)O [Oxitriptan]
[3]
  log: 0.071

## CC1(C)CCC(C)(C)c2cc(C(=O)Nc3ccc(C(=O)O)cc3)ccc21
[1]
  log: 0.0343
[2]
  log: 0.00532

## N#C/C(=C\c1ccc(O)c(O)c1)C(=O)NCc1ccccc1
[1]
  log: -0.391
[2]
  log: 0.0747

## CCc1c2c(nc3ccc(OC(=O)N4CCC(N5CCCCC5)CC4)cc13)-c1cc3c(c(=O)n1C2)COC(=O)[C@]3(O)CC [Irinotecan]
[3]
  log: -0.342

## O=C(O)[C@H](CC(=O)N1C[C@H]2CCCC[C@H]2C1)Cc1ccccc1 [Mitiglinide]
[3]
  log: 0.029

## Cc1cc(=O)oc2n[nH]c(C)c12
[3]
  log: -0.106

## CCCCCCCCCC(=O)N[C@H]1[C@H](Oc2c3cc4cc2Oc2ccc(cc2Cl)[C@@H](O[C@@H]2O[C@H](CO)[C@@H](O)[C@H](O)[C@H]2NC(C)=O)[C@@H]2NC(=O)[C@H](NC(=O)[C@@H]4NC(=O)[C@H]4NC(=O)[C@@H](Cc5ccc(c(Cl)c5)O3)NC(=O)[C@H](N)c3ccc(O)c(c3)Oc3cc(O)cc4c3)c3ccc(O)c(c3)-c3c(OC4O[C@H](CO)[C@@H](O)[C@H](O)[C@@H]4O)cc(O)cc3[C@@H](C(=O)O)NC2=O)O[C@H](CO)[C@@H](O)[C@@H]1O (stereo partly specified) [Teicoplanin]
[3]
  log: -0.285

## c1ccc(Cc2nc3ccccc3[nH]2)cc1 [Bendazol]
[3]
  log: 0.1

## C[C@@H]1CCC[C@H](C)N1NC(=O)c1ccc(Cl)c(S(N)(=O)=O)c1 [Clopamide]
[3]
  log: -0.089

## O=C(O)CCCNC(=O)c1ccccn1 [Gaba-picolinoyl-N]
[3]
  log: -0.189

## C[S+]([O-])c1ccc(-c2nc(-c3ccc(F)cc3)c(-c3ccncc3)[nH]2)cc1 (stereo unspecified)
[1]
  log: -0.202
[2]
  log: -0.0983 and -0.076

## C=C1C(=O)O[C@@H]2[C@H]3C(C)=CC[C@@]34O[C@@]4(C)CC[C@@H]12 [Arglabin]
[3]
  log: -0.13

## O[C@@H]1CO[C@H]2[C@@H]1OC[C@@H]2O [Isosorbide]
[3]
  log: 0.141

## CCCCCc1c2c(cc(O)c1C(=O)O)OC(=O)c1c(cc(OC)cc1C(=O)CCCC)O2 [Lobaric acid]
[3]
  log: -0.0484

## Cc1cccn2c(=O)c(-c3nnn[nH]3)cnc12 [Pemirolast potassium]
[3]
  log: -0.112

## O=C(Nc1ccccc1)c1cc([N+](=O)[O-])ccc1Cl
[1]
  log: -0.78
[2]
  log: 0.0598

## COC(=O)c1c(C)[nH]c(C)c1C(=O)c1ccccc1Cc1ccccc1
[1]
  log: -0.0542
[2]
  log: 0.0637

## CCOC(=O)c1c(C)n(C)c2ccc(O)cc12 [Mecarbinate]
[3]
  log: -0.809

## Clc1ccc(-c2nc3sccn3c2/C=N/OCc2ccc(Cl)c(Cl)c2)cc1
[1]
  log: -0.0621
[2]
  log: -0.0358

## CCCCN1CCCC1C(=O)Nc1c(C)cc(C)cc1C (stereo unspecified) [Bumecaine]
[3]
  log: -0.118

## Cc1cc(O)c2c(c1)C(=O)c1cc(O)cc(O)c1C2=O [Emodin]
[4]
  log: 0.11

## COc1ccc(/C=C/C(=O)O)cc1O [Isoferulic acid]
[4]
  log: -0.0776

## CC(=O)CCCCn1c(=O)c2c(ncn2C)n(C)c1=O [Pentoxifylline]
[5]
  log: -0.22

## COc1cc(-c2oc3c(OC)c(OC)cc(OC)c3c(=O)c2OC)cc(OC)c1OC [3',4',5',3,5,7,8-Heptamethoxyflavone]
[4]
  log: -0.188

## CC#Cc1ccc(-c2ccc(C(O)CO)s2)s1 (stereo unspecified) [Arctinol B]
[4]
  log: -0.238

## C=C1CC[C@]2(C)CC[C@]3(C)[C@H](CC[C@@H]4[C@@]5(C)CC[C@H](O)C(C)(C)[C@@H]5CC[C@]43C)[C@H]2[C@@H]1C [Taraxasterol]
[4]
  log: 0.0568

## Cc1cc(OC(=O)c2c(C)cc(OC(=O)c3c(C)cc(O)cc3O)cc2O)cc(O)c1C(=O)O [Gyrophoric acid]
[4]
  log: 0.16

## C=C1C(=O)O[C@H]2C[C@H](C)C(/C=C/C(C)=O)=CC[C@H]12 [Xanthatin]
[4]
  log: -0.276

## C1=C/C2=C/c3ccc([nH]3)Cc3ccc([nH]3)/C=c3/cc/c([nH]3)=C/C1=N2 [Phlorin]
[4]
  log: 0.08

## CC(=O)O[C@@H]([C@@H](C)[C@@H]1[C@H]2[C@]1(C)CC[C@@]13O[C@]2(O)C(=O)[C@@H]1CC[C@H]1C(C)(C)O[C@@H]2CC(=O)O[C@@]21[C@H]3O)[C@@H]1CC(C)C(=O)O1 (stereo partly specified) [Pre-schisanartanin B]
[4]
  log: 0.0981

## C[C@@]12CCC[C@@](C)(C(=O)O)[C@H]1CC[C@@]13C[C@@H](CC[C@H]12)[C@@](O)(CO)C3 [ent-16beta,17-Dihydroxy-19-kauranoic acid]
[4]
  log: 0.0279

## O=C(OCc1ccccc1O[C@@H]1O[C@H](CO)[C@@H](O)[C@H](O)[C@H]1O)c1c(O)cccc1O[C@@H]1O[C@H](CO)[C@@H](O)[C@H](O)[C@H]1O [Henryoside]
[4]
  log: 0.106

## Oc1ccc([C@H]2Oc3cc(O)cc(O)c3C[C@H]2O)cc1 [(-)-Epiafzelechin]
[4]
  log: 0.138

## C=C(C)C(O)CC[C@@H](C)[C@H]1CC[C@@]2(C)[C@@H]3CC[C@H]4C(C)(C)[C@@H](O)CC[C@@]45C[C@@]35CC[C@]12C (stereo partly specified) [Cycloart-25-ene-3,24-diol]
[4]
  log: -0.288

## CC1CCC2(C(=O)O)CCC3(C)C(=CCC4C5(C)CC(O)C(O)C(C)(CO)C5CCC43C)C2C1C (stereo unspecified) [2,24-Dihydroxyursolic acid]
[4]
  log: -0.142

## CC(C)=CCc1cc(-c2coc3cc(O)c(CC=C(C)C)c(O)c3c2=O)ccc1O [Lupalbigenin]
[4]
  log: -0.0367

## C[C@@H]1CC[C@]2(C(=O)O)CC[C@]3(C)C(=CC[C@@H]4[C@@]5(C)CC[C@H](O)C(C)(C)[C@@H]5CC[C@]43C)[C@@H]2[C@]1(C)O [Pomolic acid]
[4]
  log: -0.264

## C=C(CC[C@@H](C)[C@H]1CC[C@@]2(C)[C@@H]3CC[C@H]4[C@](C)(C(=O)O)[C@@H](O)CC[C@@]45C[C@@]35CC[C@]12C)C(C)C [1-Dehydroxy-23-deoxojessic acid]
[4]
  log: -0.0329

## COc1ccc(C[C@H]2C(=O)OC[C@@H]2[C@@H](OC(C)=O)c2ccc(OC)c(OC)c2)cc1OC [5-Acetoxymatairesinol dimethyl ether]
[4]
  log: 0.74

## CC(O)(CO)C(O)CO (stereo unspecified) [2-methylbutane-1,2,3,4-tetrol]
[4]
  log: -0.265

## Cc1cc(O)c2c(c1)C(=O)c1cccc(O[C@@H]3O[C@H](CO)[C@@H](O)[C@H](O)[C@H]3O)c1C2=O [Chrysophanol 8-O-glucoside]
[4]
  log: -0.119

## C/C(=C\CC[C@@H](C)[C@H]1CC[C@@]2(C)[C@@H]3CCC4C(C)(C)C(O)CC[C@]4(C)C3=CC[C@]12C)C(=O)O (stereo partly specified) [3-Hydroxylanost-9(11),24-dien-26-oic acid]
[4]
  log: -0.267

## COc1cc(/C=C/C(N)=O)ccc1O [Ferulamide]
[4]
  log: -0.00294

## COc1c2ccoc2c(OC)c2oc(=O)ccc12 [Isopimpinellin]
[4]
  log: -0.0216

## COc1cc([C@H]2OC[C@H]3[C@@H]2CO[C@@H]3c2ccc(O[C@@H]3O[C@H](CO)[C@@H](O)[C@H](O)[C@H]3O)c(OC)c2)ccc1O [(+)-Pinoresinol-4-O-beta-D-glucopyranoside]
[4]
  log: -0.554

## C=C1CC[C@H]2C(=C)CC[C@@H]3[C@H](OC(=O)[C@@H]3CS(=O)(=O)O)[C@@H]12 [Sulfocostunolide B]
[4]
  log: -1.2

## COc1cc2oc(=O)ccc2c(OC)c1O [Fraxinol]
[4]
  log: -0.102
